According to patent US8338616B2, “Thiazoliums and their use for treating protein aging associated diseases” (Beijing Molecule Science And Technology Co., Ltd., priority 2008, dated 2012):
Like-named read-outs stand apart in the source and are kept apart here.

How the values were obtained:
[1] = tested on: diabetic rats; settings: 4 weeks
Description: Rats were anesthetized with pentobarbital sodium injection (0.8%, 50 mg/kg), subjected to tracheal cannula, heparin anticoagulation, right common carotid artery cannula, communicated with Biopac physiological recorder via is pressure transducers to record blood pressure; subjected to thoracotomy at middle of sternum, separation of ascending aorta which was covered with pulse Doppler probe, and the pulse Doppler rheometer was linked to the Biopac physiological recorder for real-time recording and calculating hemodynamic parameters by the software of Biopac (Acknowledge, Version 3): systolic blood pressure (SBP), diastolic blood pressure (DBP), heart rate (HR), cardiac output
(CO), cardiac index (CI), total peripheral resistance (TPR), total peripheral resistance index (TPR Index), stroke volume (SV) and system arterial compliance (SAC), etc. After 10 min of postoperative stabilization, these parameters were recorded continuously, and mean values for 30 s were used as the measured values of these parameters.
Formula for calculating some of hemodynamic parameters: TPR=mean arterial pressure (MAP)/CO SAC=SV/(SBP−DBP)

[2] = tested on: NaCl treated diabetic rats modeled with heart failure; settings: 10 weeks
Description: Second batch: NaCl treated diabetic rats modeled with heart failure for 20 weeks and normal control rats synchronically and conventionally drinking water were divided into 5 groups: normal control rats synchronically and conventionally drinking water group (Normal Control), model control group (Model Control), the compound A group (ig, 9 mg/kg), the compound A group (ig, 36 mg/kg), administered with drug once per day for consecutive 10 weeks. The pharmacodynamic evaluation on left ventricular function was conducted by using a ventricular chatheterization method.
SPSS statistic software was used to analyze and treat data, and all data were expressed in mean±standard deviation (Mean±SD).

Cc1csc[n+]1CC(=O)O.[Na+] [A, 3-carboxymethyl-4-methyl-thiazolium bromide sodium]
Body weight ([1]; 9 mg/kg i.g.): 341 ± 27^ g | Body weight ([1]; 18 mg/kg i.g.): 344 ± 24^ g | Body weight ([1]; 36 mg/kg i.g.): 342 ± 28^ g | Body weight ([2]; 9 mg/kg ig): 282 ± 47 g | Body weight ([2]; 36 mg/kg ig): 299 ± 42 g
